Laboratory results as given in PubChem BioAssay AID2551 (National Center for Advancing Translational Sciences (NCATS), 2010).
In all, about 310,000 compounds went through this assay and about 17,000 (5.5%) were called active. Inconclusive means that the source gave no clear call. Such entries were picked first, then a sample of the others. The call rests on the fitted dose curve; in most records, active means well fitted inhibition curve with a large enough effect; inconclusive means small, poorly fitted or top-dose-only effect, or effect the other way; inactive means no such curve, though single readings can be large or run the other way. Where the call is inconclusive, the potency comes from a doubtful curve fit.

Amino acid sequences for entries named in this document (tags omitted). A change or cut given only in a name is not applied to a line headed by its entry.
UniProt P51450: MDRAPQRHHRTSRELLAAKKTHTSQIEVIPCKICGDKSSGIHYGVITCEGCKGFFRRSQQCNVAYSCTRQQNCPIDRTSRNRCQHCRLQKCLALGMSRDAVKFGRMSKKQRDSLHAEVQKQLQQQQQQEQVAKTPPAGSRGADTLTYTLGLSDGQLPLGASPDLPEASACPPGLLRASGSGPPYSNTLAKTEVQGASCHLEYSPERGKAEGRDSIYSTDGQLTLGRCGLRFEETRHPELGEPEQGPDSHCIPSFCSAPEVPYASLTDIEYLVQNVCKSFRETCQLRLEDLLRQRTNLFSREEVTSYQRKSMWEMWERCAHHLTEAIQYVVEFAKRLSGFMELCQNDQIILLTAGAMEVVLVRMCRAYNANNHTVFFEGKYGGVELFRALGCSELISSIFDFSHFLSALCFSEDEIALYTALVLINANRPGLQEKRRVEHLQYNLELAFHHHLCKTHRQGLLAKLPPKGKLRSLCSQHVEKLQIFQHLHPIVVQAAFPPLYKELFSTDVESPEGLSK

target: Nuclear receptor ROR-gamma (Mus musculus) (UniProt P51450); assay: qHTS for inhibitors of ROR gamma transcriptional activity; settings: Drosophila S2 Gal4-RORgamma UAS-luciferase reporter, 20 h; series mostly up to 53.6 µM; further: nearly all actives have a fitted effect of over 60% in size
Procedure, shortened: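 Compounds are pin-transferred onto Drosophila Schneider cells expressing a copper-inducible Gal4–ROR gamma transactivation domain fusion. After 1 hr, copper sulfate is added to 700 uM final; luciferase is read 20 hr later.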
Potency means the concentration at half of the fitted maximal effect.

Potency, active:
Cc1cc(C)nc(N/N=C/C=C/c2ccccc2)n1 1.26 µM
CCS(=O)(=O)c1ccc(OC)c(N=Nc2ccc(O)c3ncccc23)c1 1 µM

Potency, inconclusive:
COc1ccc(OCc2nc3ccc(S(=O)(=O)Nc4ccccc4Cl)cc3[nH]2)cc1 8.91 µM [activator, partial curve]
O=S(=O)(O)c1cccc2c(N=Nc3ccc(O)c4ncccc34)cccc12 35.5 µM [inhibitor, single point]
CN(C1CCS(=O)(=O)C1)S(=O)C12CC3CC(CC(C3)C1)C2 (stereo not drawn) 0.794 µM [inhibitor, full curve, poor fit]
O=C(Nc1ccc2nc3ccccc3nc2c1)c1ccccc1 0.251 µM [activator, full curve]
C/C(NCc1ccccc1)=C(\C#N)C(=O)NCc1ccccc1 12.6 µM [activator, single point]
CCOC(=O)c1c(C)oc2c1c(C(c1ccncc1)N1CCOCC1)c(O)c1ccccc12 (stereo not drawn) 4.47 µM [inhibitor, partial curve, poor fit]
Cc1c(C(=O)OCC2CCCO2)[nH]c2c1C(=O)CC(c1ccco1)C2 (stereo not drawn) 10 µM [activator, partial curve]
CC(C)c1ccc(Oc2cccc(C(=O)/C(C#N)=C/N(C)C)c2)cc1 10 µM [activator, partial curve]
COC(=O)C1=C(C)NC2=C(C(=O)CCC2)C1c1cn(Cc2ccc(Br)cc2)nc1-c1ccccc1 (stereo not drawn) 17.8 µM [activator, single point]
CC(/C=C/c1ccccc1)=N/NC(=O)c1nc2nc(C)cc(C)n2n1 0.708 µM [activator, full curve]
Cc1ccc2[nH]c(-c3ccccc3)cc(=O)c2c1 35.5 µM [inhibitor, single point]
CCC(=O)N1CCN(c2ccccc2NC(=O)c2ccc([N+](=O)[O-])o2)CC1 10 µM [inhibitor, partial curve]
Cc1ccc2occ(C(c3nnnn3Cc3ccccc3)N3CCOCC3)c(=O)c2c1 (stereo not drawn) 7.08 µM [activator, partial curve]
O=C(C1CCN(S(=O)(=O)c2cccc3nsnc23)CC1)N1CC=C(c2ccccc2)CC1 31.6 µM [activator, single point]

Quoted from above, four compounds:
Potency, inconclusive:
CCOC(=O)c1c(C)oc2c1c(C(c1ccncc1)N1CCOCC1)c(O)c1ccccc12 (stereo not drawn) 4.47 µM [inhibitor, partial curve, poor fit]
Cc1c(C(=O)OCC2CCCO2)[nH]c2c1C(=O)CC(c1ccco1)C2 (stereo not drawn) 10 µM [activator, partial curve]
CC(C)c1ccc(Oc2cccc(C(=O)/C(C#N)=C/N(C)C)c2)cc1 10 µM [activator, partial curve]
COC(=O)C1=C(C)NC2=C(C(=O)CCC2)C1c1cn(Cc2ccc(Br)cc2)nc1-c1ccccc1 (stereo not drawn) 17.8 µM [activator, single point]

Following part.

Potency, inactive:
O=C(CCc1nc2ccccc2[nH]c1=O)N/N=C/c1ccccc1
N#Cc1sc2nc(-c3ccccc3)cc(C(F)(F)F)c2c1N
